According to patent US7468384B2, “Microbicidal composition” (Rohm and Haas Company, priority 2004, dated 2008):

What was measured:
[1] = test system: Aspergillus niger (A. niger—ATCC 16404); assay: Synergy test, microtiter plate high resolution MIC assay, mold; type: cell-based; conditions: ATCC16404, 96 h, read-out: Qb: end-point activity (MIC) of second component in the mixture (alone, QB, where Qa = 0)
From the text: (§1) One measure of synergism is the industrially accepted method described by Kull, F. C.; Eisman, P. C.; Sylwestrowicz, H. D. and Mayer, R. L., in Applied Microbiology 9:538-541 (1961), using the ratio determined by the formula: Qa/QA+Qb/QB=Synergy Index (“SI”) wherein: • QA=concentration of compound A (first component) in ppm, acting alone, which produced an end point (MIC of Compound A). • Qa=concentration of compound A in ppm, in the mixture, which produced an end point. • QB=concentration of compound B (second component) in ppm, acting alone, which produced an end point (MIC of Compound B). • Qb=concentration of compound B in ppm, in the mixture, which produced an end point. […]
(§2) Synergy tests were conducted using standard microtiter plate assays with media designed for optimal growth of the test microorganism. […] High resolution MICs were determined by adding varying amounts of microbicide to one column of a microtitre plate and doing subsequent ten-fold dilutions using an automated liquid handling system to obtain a series of endpoints ranging from 2 ppm to 10,000 ppm active ingredient. […]
(§3) For BIT combinations, the synergy of the combinations of the present invention was determined against a bacterium, Pseudomonas aeruginosa (P. aeruginosa—ATCC #15442), a yeast, Candida albicans (C. albicans—ATCC 10231), and a mold, Aspergillus niger (A. niger—ATCC 16404). […]

[2] = test system: Pseudomonas aeruginosa (P. aeruginosa—ATCC #15442); assay: Synergy test, microtiter plate high resolution MIC assay, bacterium; type: cell-based; conditions: ATCC15442, 48 h, read-out: Qb: end-point activity (MIC) of second component in the mixture (alone, QB, where Qa = 0)
From the text: as §1, §2, §3

CC(C)(C)CC(C)(C)c1ccc(OCCOCC[N+](C)(C)Cc2ccccc2)cc1 [Benzethonium chloride]
MIC [1]: 6 µg/mL | MIC [2]: 40 µg/mL
